Values of other authors as cited in patent US7838561B2, “Method for preventing or treating cardiac hypertrophy” (Wisconsin Alumni Research Foundation, priority 2004, dated 2010).
For at least one compound, name, drawing or mass did not settle the structure.

Target: T1, RARα (Homo sapiens, UniProt P10276)
T1 sequence (P10276 1-462): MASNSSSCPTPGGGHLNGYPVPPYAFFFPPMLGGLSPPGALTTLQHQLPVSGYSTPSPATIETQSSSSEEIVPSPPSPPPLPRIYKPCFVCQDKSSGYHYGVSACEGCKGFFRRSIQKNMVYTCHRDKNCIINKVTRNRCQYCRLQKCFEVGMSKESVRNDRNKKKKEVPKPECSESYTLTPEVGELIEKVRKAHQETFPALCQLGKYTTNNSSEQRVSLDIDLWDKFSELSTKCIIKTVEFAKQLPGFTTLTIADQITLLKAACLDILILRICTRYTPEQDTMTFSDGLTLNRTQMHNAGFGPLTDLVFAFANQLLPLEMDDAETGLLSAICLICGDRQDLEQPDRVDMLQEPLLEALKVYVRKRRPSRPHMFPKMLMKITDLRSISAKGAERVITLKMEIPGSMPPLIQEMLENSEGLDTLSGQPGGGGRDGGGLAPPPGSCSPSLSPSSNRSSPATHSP

Structure (SMILES): Cc1ccc(C2=CC(C)(C)Oc3c(Br)cc(C(=O)Nc4ccc(C(=O)O)c(F)c4)cc32)cc1 [AGN 194301]
- molar ratio that selectively silences RARα-dependent activities: 0.1:1 molar ratio
